Measured values from paper PMC4377584.
No constants are given. Whether binding was seen depends on the method and setting. Binding seen in cells or lysates may run through a third protein. Where a sequence is shown, tags or fusion partners need not be part of it.

Target: T1, Flag-tagged NPRL2, Q8WTW4
T1 chain: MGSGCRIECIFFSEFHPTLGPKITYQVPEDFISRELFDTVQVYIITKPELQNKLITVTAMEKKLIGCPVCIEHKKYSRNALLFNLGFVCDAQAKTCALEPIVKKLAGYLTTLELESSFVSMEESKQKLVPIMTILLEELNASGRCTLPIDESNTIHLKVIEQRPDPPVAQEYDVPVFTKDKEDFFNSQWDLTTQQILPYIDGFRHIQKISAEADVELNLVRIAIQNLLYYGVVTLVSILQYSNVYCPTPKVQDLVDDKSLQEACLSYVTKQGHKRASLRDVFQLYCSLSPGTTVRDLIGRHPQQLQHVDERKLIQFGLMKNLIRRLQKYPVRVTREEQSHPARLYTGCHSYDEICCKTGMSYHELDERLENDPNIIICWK
Assay: co-IP; HEK293 cells co-transfected with HA-tagged Sestrin2 and GATOR1 and GATOR2 components; Flag-NPRL2 (Fig. 2A) or Flag-WDR24 (Fig. 2B, S4) IPed with Flag antibody; immunoblot
Conditions: remark: other sources report otherwise

binding: no binding
B1: HA-tagged Sestrin2, P58004 1-480 (protein)
chain: MIVADSECRAELKDYLRFAPGGVGDSGPGEEQRESRARRGPRGPSAFIPVEEVLREGAESLEQHLGLEALMSSGRVDNLAVVMGLHPDYFTSFWRLHYLLLHTDGPLASSWRHYIAIMAAARHQCSYLVGSHMAEFLQTGGDPEWLLGLHRAPEKLRKLSEINKLLAHRPWLITKEHIQALLKTGEHTWSLAELIQALVLLTHCHSLSSFVFGCGILPEGDADGSPAPQAPTPPSEQSSPPSRDPLNNSGGFESARDVEALMERMQQLQESLLRDEGTSQEEMESRFELEKSESLLVTPSADILEPSPHPDMLCFVEDPTFGYEDFTRRGAQAPPTFRAQDYTWEDHGYSLIQRLYPEGGQLLDEKFQAAYSLTYNTIAMHSGVDTSVLRRAIWNYIHCVFGIRYDDYDYGEVNQLLERNLKVYIKTVACYPEKTTRRMYNLFWRHFRHSEKVHVNLLLLEARMQAALLYALRAITRYMT
